The source of these data is patent US10759783B2, “Biaryl inhibitors of Bruton'S tyrosine kinase” (BIOGEN MA INC., priority 2013, dated 2020).

By UniProt entry, the sequences of proteins in these tests, tags left out.
UniProt Q06187, whole entry: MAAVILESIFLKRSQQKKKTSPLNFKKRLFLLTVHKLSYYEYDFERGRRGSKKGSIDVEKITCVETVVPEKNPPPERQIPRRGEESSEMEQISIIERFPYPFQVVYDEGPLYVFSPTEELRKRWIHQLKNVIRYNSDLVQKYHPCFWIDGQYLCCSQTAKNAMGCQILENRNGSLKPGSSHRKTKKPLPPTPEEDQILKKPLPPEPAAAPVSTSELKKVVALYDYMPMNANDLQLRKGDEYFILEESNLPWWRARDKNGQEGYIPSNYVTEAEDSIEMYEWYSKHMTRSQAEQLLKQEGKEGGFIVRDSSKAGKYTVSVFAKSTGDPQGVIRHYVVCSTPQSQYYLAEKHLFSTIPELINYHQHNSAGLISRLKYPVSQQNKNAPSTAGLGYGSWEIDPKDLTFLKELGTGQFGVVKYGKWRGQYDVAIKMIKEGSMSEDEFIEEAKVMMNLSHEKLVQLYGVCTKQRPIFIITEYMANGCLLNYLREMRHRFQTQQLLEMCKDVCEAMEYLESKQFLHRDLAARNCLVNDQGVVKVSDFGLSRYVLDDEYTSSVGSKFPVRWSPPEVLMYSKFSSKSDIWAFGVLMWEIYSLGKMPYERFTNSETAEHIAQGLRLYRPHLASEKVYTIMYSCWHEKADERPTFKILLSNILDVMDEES

Each structure is given as a SMILES string. pIC50: −log10 of the molar value. The structures given here were assigned with low confidence; some may be wrong. A value given as a limit tells only on which side of the number the result lay.

What is called pIC50 is −log10 of the IC50, conventionally taken in molar units.

For one test, the target named is BTK enzyme (Homo sapiens, UniProt Q06187). Briefly: In vitro BTK kinase assay: BTK-POLYGAT-LS assay. The class given is biochemical. The note with it: read-out: IC50 (10uMATP), ATP 10 μM.
For test [1], the target named is BTK (phospho-BTK) in human whole blood (Homo sapiens, UniProt Q06187). Briefly: In vitro PD assay in human whole blood (pBTK assay). The note with it: read-out: pBTK IC50, 37° C. for 30 min.

For `Cc1cc(-c2ccnc(Nc3cnn(C4CN(C)C4)c3)n2)ccc1CN1CCN(CC(C)C)CC1=O`, the pIC50 at BTK enzyme was greater than 8.00; in test [1] it was greater than 6.30.
